Compound in this experiment: [O-][N+](C(C1=C(C(O)=C2)NC(C(C=C3)=CC=C3Cl)C4C1C=CC4)=C2Cl)=O
The experiment in a line: melting temperature shift (compound 7 minus DMSO); higher = compound stabilises the protein. The following applies: 10 µM. How it is done: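 Thermal proteome profiling (TMT mass spectrometry) in intact DAOY medulloblastoma cells or DAOY lysates treated with 10 µM compound 7 or DMSO, heated at 10 temperatures from 40.5 to 73.8 °C for 3 min. Melting curves were fitted with the Bioconductor TPP package, and the melting point difference between compound and vehicle is reported per protein (single curve per condition).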

The chains behind the UniProt entries cited, without tags or fusion partners. Where a name states a change or a piece, a line headed by the entry shows the natural chain unless it says otherwise.
UniProt Q00610: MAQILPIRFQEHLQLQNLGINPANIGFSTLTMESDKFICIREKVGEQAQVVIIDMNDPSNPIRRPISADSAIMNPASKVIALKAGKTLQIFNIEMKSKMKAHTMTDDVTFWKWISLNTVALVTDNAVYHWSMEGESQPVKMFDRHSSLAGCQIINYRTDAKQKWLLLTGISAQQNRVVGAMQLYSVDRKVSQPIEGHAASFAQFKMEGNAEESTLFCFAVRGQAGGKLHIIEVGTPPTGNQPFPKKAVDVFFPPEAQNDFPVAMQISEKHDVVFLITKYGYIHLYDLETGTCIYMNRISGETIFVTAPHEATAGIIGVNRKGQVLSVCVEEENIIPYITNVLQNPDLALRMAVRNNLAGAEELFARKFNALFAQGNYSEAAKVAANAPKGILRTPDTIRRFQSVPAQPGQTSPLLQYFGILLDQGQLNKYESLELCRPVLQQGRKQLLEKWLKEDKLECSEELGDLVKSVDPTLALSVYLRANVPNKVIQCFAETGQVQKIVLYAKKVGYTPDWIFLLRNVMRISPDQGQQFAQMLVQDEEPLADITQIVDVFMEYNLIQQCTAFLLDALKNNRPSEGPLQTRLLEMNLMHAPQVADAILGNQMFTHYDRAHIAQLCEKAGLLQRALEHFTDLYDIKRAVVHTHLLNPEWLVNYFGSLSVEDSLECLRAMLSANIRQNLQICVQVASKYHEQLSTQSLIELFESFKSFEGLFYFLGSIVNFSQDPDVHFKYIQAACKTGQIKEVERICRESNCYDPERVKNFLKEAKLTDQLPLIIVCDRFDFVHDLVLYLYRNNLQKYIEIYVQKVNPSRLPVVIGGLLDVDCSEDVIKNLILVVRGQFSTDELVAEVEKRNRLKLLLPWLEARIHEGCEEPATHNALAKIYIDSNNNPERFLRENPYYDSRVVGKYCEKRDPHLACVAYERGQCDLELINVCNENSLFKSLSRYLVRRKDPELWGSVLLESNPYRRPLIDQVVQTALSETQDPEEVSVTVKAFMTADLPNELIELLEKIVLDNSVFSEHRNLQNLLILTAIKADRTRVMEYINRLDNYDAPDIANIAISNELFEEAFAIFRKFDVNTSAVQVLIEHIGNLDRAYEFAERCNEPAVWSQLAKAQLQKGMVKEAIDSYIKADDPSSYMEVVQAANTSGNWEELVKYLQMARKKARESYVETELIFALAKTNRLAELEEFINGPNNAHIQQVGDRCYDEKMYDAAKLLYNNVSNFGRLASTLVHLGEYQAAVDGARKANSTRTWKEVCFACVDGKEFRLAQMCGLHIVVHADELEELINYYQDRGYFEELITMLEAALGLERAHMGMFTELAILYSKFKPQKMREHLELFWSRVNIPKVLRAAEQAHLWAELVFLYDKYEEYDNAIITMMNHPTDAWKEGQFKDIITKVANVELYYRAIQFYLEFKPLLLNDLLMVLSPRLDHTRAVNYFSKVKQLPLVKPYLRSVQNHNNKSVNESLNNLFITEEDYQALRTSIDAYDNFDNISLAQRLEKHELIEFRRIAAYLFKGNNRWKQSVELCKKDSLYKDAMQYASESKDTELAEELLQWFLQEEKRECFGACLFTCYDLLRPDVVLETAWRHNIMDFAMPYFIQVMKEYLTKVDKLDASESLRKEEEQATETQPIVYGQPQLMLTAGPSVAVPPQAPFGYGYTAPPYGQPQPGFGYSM
UniProt P0C7P4: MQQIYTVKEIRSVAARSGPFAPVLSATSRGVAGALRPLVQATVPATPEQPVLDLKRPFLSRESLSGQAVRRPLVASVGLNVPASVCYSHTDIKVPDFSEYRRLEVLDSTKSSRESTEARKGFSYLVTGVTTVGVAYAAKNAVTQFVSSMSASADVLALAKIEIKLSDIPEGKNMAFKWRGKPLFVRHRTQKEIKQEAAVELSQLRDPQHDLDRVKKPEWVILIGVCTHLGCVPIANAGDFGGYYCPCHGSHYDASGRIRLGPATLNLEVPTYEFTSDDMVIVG
UniProt Q9H792: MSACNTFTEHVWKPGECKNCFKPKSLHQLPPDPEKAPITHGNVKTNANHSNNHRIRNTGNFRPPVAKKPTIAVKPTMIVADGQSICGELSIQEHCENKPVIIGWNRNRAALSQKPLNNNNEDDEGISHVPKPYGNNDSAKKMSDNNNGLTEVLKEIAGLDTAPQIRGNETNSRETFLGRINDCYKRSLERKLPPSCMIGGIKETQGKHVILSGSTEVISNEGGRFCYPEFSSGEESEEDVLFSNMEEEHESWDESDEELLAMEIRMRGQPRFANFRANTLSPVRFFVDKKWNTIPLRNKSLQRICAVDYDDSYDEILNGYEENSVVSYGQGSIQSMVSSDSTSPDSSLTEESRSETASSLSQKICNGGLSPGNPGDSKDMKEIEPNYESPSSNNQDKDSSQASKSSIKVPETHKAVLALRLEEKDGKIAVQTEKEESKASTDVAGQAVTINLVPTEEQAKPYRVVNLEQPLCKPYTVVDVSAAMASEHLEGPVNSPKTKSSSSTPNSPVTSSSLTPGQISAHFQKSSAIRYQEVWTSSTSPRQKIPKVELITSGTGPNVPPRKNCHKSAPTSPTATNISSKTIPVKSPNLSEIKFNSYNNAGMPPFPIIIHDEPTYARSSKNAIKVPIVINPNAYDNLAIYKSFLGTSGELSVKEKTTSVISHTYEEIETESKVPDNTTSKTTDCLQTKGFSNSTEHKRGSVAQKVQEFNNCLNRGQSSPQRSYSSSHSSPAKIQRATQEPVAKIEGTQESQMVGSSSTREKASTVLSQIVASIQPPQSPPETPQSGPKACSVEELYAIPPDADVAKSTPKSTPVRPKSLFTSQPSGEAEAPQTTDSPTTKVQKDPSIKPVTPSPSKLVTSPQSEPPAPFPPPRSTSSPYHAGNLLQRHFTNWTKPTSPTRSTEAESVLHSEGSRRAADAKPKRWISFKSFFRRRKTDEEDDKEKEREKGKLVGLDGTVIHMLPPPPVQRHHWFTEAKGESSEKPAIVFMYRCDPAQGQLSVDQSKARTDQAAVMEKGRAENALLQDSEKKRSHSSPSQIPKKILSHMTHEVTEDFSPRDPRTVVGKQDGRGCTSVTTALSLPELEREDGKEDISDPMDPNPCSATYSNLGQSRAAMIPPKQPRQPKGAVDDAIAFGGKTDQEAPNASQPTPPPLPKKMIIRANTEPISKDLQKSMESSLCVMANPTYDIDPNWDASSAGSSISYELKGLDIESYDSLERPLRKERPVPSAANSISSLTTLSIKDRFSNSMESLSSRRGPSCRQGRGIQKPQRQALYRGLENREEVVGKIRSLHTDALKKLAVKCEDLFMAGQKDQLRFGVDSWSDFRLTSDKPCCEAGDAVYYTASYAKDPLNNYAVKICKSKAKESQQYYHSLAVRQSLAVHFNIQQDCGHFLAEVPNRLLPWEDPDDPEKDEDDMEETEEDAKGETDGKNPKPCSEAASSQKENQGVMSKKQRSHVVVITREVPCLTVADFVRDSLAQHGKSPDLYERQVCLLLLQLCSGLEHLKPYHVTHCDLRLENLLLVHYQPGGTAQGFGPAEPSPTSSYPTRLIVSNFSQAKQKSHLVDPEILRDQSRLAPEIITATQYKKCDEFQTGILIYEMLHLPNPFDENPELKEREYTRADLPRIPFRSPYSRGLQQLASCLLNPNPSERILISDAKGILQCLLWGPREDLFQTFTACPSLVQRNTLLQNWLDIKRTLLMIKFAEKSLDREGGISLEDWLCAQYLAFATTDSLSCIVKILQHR
UniProt Q9NS18: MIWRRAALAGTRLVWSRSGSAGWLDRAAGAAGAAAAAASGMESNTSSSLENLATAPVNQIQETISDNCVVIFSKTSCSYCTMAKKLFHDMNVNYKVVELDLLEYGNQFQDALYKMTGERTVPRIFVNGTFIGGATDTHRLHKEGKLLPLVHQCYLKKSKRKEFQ
UniProt Q04941: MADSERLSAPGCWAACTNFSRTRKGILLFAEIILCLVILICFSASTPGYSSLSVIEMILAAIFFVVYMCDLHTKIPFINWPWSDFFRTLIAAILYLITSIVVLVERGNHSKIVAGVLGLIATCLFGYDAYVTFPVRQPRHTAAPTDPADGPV
UniProt Q13671: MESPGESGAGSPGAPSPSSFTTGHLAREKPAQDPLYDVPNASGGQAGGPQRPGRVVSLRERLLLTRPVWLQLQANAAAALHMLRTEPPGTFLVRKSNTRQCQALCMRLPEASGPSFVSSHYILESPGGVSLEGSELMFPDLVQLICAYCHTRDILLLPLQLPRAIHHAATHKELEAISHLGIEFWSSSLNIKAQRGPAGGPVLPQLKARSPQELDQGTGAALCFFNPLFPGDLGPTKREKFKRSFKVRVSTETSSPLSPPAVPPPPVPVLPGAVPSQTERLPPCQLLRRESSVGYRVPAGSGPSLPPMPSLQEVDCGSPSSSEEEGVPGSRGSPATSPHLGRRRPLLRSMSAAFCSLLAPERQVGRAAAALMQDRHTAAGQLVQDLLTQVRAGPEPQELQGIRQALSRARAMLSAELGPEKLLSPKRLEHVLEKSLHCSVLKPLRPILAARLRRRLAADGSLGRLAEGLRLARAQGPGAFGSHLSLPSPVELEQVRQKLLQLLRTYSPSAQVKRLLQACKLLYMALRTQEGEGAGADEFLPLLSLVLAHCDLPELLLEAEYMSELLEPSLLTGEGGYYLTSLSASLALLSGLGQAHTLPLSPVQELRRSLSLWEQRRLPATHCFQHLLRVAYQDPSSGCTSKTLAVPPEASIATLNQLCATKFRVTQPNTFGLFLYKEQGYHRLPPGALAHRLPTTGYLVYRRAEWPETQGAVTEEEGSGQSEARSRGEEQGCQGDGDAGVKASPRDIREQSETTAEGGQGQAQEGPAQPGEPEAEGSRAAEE
UniProt Q86UP2: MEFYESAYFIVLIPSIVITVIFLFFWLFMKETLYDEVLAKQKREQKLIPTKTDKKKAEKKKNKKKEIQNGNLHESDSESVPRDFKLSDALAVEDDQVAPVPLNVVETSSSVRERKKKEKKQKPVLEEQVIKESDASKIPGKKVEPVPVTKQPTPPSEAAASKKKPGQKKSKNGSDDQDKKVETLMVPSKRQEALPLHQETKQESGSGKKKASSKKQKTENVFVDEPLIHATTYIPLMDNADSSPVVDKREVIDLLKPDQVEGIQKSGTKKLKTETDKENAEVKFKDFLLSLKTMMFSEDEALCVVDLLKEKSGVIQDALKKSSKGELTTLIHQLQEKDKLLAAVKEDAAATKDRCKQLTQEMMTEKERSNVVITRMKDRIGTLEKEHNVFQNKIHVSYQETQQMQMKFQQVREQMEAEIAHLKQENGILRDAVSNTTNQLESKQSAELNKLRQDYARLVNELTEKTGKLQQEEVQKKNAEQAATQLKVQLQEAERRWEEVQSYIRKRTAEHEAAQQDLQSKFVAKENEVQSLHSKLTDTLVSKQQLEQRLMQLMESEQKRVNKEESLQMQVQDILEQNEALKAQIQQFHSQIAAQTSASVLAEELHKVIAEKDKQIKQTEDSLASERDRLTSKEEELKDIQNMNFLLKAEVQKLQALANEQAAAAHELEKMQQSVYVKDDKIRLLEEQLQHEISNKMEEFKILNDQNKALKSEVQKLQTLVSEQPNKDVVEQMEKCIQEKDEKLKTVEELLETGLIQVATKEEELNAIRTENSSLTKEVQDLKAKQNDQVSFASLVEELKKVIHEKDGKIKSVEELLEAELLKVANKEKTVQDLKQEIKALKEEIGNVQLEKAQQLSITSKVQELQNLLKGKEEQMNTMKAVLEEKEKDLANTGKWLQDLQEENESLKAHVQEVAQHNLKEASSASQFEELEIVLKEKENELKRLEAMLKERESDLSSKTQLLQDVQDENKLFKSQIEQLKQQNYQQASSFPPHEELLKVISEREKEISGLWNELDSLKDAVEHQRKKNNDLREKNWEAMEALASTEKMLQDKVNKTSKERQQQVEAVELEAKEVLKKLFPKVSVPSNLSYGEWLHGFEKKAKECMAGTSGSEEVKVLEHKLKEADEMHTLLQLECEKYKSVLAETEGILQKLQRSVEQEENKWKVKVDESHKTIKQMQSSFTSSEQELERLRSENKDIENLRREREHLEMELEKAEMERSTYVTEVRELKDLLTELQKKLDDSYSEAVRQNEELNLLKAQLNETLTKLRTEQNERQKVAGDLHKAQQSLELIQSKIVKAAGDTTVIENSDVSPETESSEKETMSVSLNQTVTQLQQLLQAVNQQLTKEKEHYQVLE
UniProt O43347: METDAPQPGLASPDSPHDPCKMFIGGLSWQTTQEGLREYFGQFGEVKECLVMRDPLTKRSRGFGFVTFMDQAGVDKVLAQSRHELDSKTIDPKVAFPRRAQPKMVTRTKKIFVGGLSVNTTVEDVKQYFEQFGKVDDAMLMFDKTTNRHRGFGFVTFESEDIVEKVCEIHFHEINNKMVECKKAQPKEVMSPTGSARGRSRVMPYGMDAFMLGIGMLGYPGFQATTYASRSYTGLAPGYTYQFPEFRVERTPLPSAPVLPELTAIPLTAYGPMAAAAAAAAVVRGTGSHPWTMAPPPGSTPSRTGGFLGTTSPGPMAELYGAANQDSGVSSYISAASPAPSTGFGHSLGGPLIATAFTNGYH

The mark [1] stands for this setting: system: DAOY cell lysate, treatment time: 20 min, 4 °C.
The mark [2] stands for this setting: system: intact DAOY cells, treatment time: 90 min, 37 °C.

Single values are uncertain, as repeats are few or missing.

In the case of VDAC2 (UniProt P45880), the melting temperature shift is 3.38 °C under setting [1] and -0.697 °C under setting [2].

In the case of UniProt P78352, the melting temperature shift under setting [2] was -0.0963 °C.

In the case of CLTC (UniProt Q00610), the melting temperature shift under setting [2] turned out to be 0.394 °C.

Turning to FBXO9 (UniProt Q9UK97), the melting temperature shift under setting [2] came out at 2.36 °C.

Turning to LARS2 (UniProt Q15031), the melting temperature shift was -1.57 °C under setting [1] and -0.969 °C under setting [2].

As to NEMF (UniProt O60524), the melting temperature shift by setting is: under setting [1], -1.27 °C; under setting [2], 0.24 °C.

As to MARK4 (UniProt Q96L34), the melting temperature shift under setting [2] is 0.365 °C.

For SRSF1 (UniProt Q07955), the melting temperature shift under setting [1] is -0.365 °C.

Turning to UniProt O60308, the melting temperature shift under setting [2] is -2.18 °C.

With MTMR12 (UniProt Q9C0I1), the melting temperature shift under setting [1] is -1.95 °C and the melting temperature shift under setting [2] is -0.577 °C.

On to UniProt P0C7P4, for which the melting temperature shift under setting [2] is -1.7 °C.

Take PEAK1 (UniProt Q9H792): the melting temperature shift under setting [1] is -0.328 °C.

Regarding FUT11 (UniProt Q495W5), under setting [1], the melting temperature shift was 1.27 °C.

As to RAB24 (UniProt Q969Q5), the melting temperature shift was 0.935 °C under setting [1] and -0.883 °C under setting [2].

On to C20ORF27 (UniProt Q9GZN8), for which the melting temperature shift is -1.18 °C under setting [1] and -0.578 °C under setting [2].

With NDUFAF7 (UniProt Q7L592), the melting temperature shift under setting [2] was -2.35 °C.

ATP6V1A (UniProt P38606): the melting temperature shift runs as follows: under setting [1], -0.324 °C; under setting [2], 1.49 °C.

With UniProt Q9Y5U8, the melting temperature shift by setting is: under setting [1], -0.97 °C; under setting [2], 1.2 °C.

In the case of ATP13A3 (UniProt Q9H7F0), the melting temperature shift under setting [1] is -1.17 °C and the melting temperature shift under setting [2] was -0.849 °C.

Regarding GLRX2 (UniProt Q9NS18), the melting temperature shift under setting [1] was -1.77 °C.

Regarding PDCL (UniProt Q13371), the melting temperature shift under setting [1] is -0.563 °C and the melting temperature shift under setting [2] worked out at 0.192 °C.

Regarding PRPF38B (UniProt Q5VTL8), the melting temperature shift is 0.57 °C under setting [1] and 0.0255 °C under setting [2].

As to RPL10 (UniProt P27635), the melting temperature shift is, setting by setting: under setting [1], 1.47 °C; under setting [2], -0.822 °C.

Consider DPP3 (UniProt Q9NY33), for which the melting temperature shift is -0.524 °C under setting [1] and -0.356 °C under setting [2].

In the case of UniProt Q04941, the melting temperature shift under setting [1] was -4.01 °C.

Take TRNT1 (UniProt Q96Q11): the melting temperature shift runs as follows: under setting [1], 0.552 °C; under setting [2], -1.31 °C.

Regarding UniProt O15504, the melting temperature shift under setting [1] is -0.823 °C.

With RIN1 (UniProt Q13671), the melting temperature shift reads like this: under setting [1], -0.284 °C; under setting [2], -1.31 °C.

Take HSD17B12 (UniProt Q53GQ0): the melting temperature shift reads like this: under setting [1], 0.565 °C; under setting [2], -0.0317 °C.

In the case of MTMR14 (UniProt Q8NCE2), under setting [1], the melting temperature shift is -0.455 °C.

With ERBB2IP (UniProt Q96RT1), the melting temperature shift under setting [1] was 1.24 °C and the melting temperature shift under setting [2] was -0.494 °C.

As for PSMD6 (UniProt Q15008), the melting temperature shift is -0.729 °C under setting [1] and -0.974 °C under setting [2].

UniProt P18433: the melting temperature shift under setting [1] came to 2.04 °C.

For UniProt Q99958, the melting temperature shift runs as follows: under setting [1], 0.235 °C; under setting [2], -1.33 °C.

Turning to UniProt Q8TE73, the melting temperature shift under setting [2] is -1.48 °C.

Regarding MRFAP1 (UniProt Q9Y605), the melting temperature shift under setting [1] amounted to 1.45 °C.

On to KTN1 (UniProt Q86UP2), for which the melting temperature shift is 1.31 °C under setting [1] and -0.651 °C under setting [2].

For UniProt O43347, the melting temperature shift under setting [2] was found to be 0.282 °C.

Turning to TNPO2 (UniProt O14787), the melting temperature shift reads like this: under setting [1], -0.642 °C; under setting [2], -0.0681 °C.

UniProt Q9H0W5: the melting temperature shift under setting [1] was -0.273 °C.
